Experimental data from patent publication US20030022345A1.

Key:
[1] = biological target: FLAG-eIF4E; assay: summary in the discussion
[2] = biological target: FLAG-eIF4E; assay: anti-HA co-immunoprecipitation from HeLa cells co-expressing FLAG-eIF4E, Western blot
[3] = biological target: FLAG-eIF4E; assay: heading of the results (co-immunoprecipitation and resin binding)

Measured: binding

B1: HA-tagged p97 (N-terminal three copies of HA; pcDNA3-HA-p97) (protein, not shown: small tags and cut ends)
chain: VESAIAEGGASRFSASSGGGGSRGAPQHYPKTAGNSEFLGKTPGQNAQKWIPARSTRRDDNSAANNSANEKERHDAIFRKVRGILNKLTPEKFDKLCLELLNVGVESKLILKGVILLIVDKALEEPKYSSLYAQLCLRLAEDAPNFDGPAAEGQPGQKQSTTFRRLLISKLQDEFENRTRNVDVYDKRENPLLPEEEEQRAIAKIKMLGNIKFIGELGKLDLIHESILHKCIKTLLEKKKRVQLKDMGEDLECLCQIMRTVGPRLDHERAKSLMDQYFARMCSLMLSKELPARIRFLLQDTVELREHHWVPRKAFLDNGPKTINQIRQDAVKDLGVFIPAPMAQGMRSDFFLEGPFMPPRMKMDRDPLGGLADMFGQMPGSGIGTGPGVIQDRFSPTMGRHRSNQLFNGHGGHIMPPTQSQFGEMGGKFMKSQGLSQLYHNQSQGLLSQLQGQSKDMPPRFSKKGQLNADEISLRPAQSFLMNKNQVPKLQPQITMIPPSAQPPRTQTPPLGQTPQLGLKTNPPLIQEKPAKTSKKPPPSKEELLKLTETVVTEYLNSGNANEAVNGVREMRAPKHFLPEMLSKVIILSLDRSDEDKEKASSLISLLKQEGIATSDNFMQAFLNVLDQCPKLEVDIPLVKSYLAQFAARAIISELVSISELAQPLESGTHFPLFLLCLQQLAKLQDREWLTELFQQSKVNMQKMLPEIDQNKDRMLEILEGKGLSFLFPLLKLEKELLKQIKLDPSPQTIYKWIKDNISPKLHVDKGFVNILMTSFLQYISSEVNPPSDETDSSSAPSKEQLEQEKQLLLSFKPVMQKFLHDHVDLQVSALYALQVHCYNSNFPKGMLLRFFVHFYDMEIIEEEAFLAWKEDITQEFPGKGKALFQVNQWLTWLETAEEEESEEEAD
no binding: [1] | [2] | [3]

No constants are given. Whether binding was seen depends on the method and setting. For part of these data: In cells and extracts the contact can be indirect. Tags and fused reporters may be left off the sequences shown.
